Data as given in publication PMC13164374.
No constants are given. Whether binding was seen depends on the method and setting. Binding seen in cells or lysates may run through a third protein. Some results given as binding are weak or reduced against the parent protein; the word gives no strength. Sequences can lack the tags named with a protein.

By UniProt entry, the sequences of proteins in these tests, tags left out.
UniProt Q99729: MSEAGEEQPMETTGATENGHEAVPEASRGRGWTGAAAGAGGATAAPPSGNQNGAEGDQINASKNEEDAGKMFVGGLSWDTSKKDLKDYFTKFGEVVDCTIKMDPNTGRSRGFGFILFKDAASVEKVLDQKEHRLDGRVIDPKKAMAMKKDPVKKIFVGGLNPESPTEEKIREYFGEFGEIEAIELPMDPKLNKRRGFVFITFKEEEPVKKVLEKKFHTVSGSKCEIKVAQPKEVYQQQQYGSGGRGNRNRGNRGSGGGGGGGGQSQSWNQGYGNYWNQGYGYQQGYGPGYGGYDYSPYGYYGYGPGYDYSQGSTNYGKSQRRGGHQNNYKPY

T1: GFP-tagged ADAR1p110 (UniProt P55265)
T1 sequence: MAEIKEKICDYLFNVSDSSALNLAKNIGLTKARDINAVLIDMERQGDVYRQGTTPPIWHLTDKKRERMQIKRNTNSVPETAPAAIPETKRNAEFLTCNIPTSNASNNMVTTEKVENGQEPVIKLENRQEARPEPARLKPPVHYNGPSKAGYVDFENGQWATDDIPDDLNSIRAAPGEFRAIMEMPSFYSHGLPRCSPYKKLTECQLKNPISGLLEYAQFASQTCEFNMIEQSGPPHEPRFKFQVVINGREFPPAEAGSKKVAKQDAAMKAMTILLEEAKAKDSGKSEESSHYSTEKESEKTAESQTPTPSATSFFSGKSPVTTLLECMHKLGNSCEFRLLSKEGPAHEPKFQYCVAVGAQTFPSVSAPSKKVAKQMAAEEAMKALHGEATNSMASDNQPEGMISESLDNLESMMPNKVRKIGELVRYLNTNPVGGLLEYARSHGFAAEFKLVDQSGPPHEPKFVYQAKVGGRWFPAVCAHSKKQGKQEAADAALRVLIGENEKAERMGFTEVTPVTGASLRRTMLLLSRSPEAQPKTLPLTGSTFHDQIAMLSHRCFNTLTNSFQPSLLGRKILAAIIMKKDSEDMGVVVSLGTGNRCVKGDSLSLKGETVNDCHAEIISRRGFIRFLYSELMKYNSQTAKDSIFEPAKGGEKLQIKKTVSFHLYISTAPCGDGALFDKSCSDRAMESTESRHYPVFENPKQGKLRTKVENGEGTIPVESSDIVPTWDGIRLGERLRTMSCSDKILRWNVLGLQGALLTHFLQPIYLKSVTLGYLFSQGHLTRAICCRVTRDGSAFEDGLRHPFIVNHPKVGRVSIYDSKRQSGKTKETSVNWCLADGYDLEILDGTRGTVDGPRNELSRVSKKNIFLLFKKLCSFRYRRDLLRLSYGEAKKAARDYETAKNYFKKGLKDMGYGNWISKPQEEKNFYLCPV


Molecular target: T1, GFP-tagged ADAR1p110
Test: co-IP; GFP-trap beads on lysate of HeLa cells overexpressing ADAR1p110-GFP or GFP; lysis buffer 10 mM Tris/Cl pH 7.5, 150 mM NaCl, 0.5 mM EDTA, 0.5% Triton X, with 250 units Benzonase; 4 h at 4 °C; beads boiled; Western blot

binding	Molecule
binds	HNRNPA/B (from UniProt Q99729 1-332)
binds	HNRNPL (protein, UniProt P14866 1-589) MSRRLLPRAEKRRRRLEQRQQPDEQRRRSGAMVKMAAAGGGGGGGRYYGGGSEGGRAPKRLKTDNAGDQHGGGGGGGGGAGAAGGGGGGENYDDPHKTPASPVVHIRGLIDGVVEADLVEALQEFGPISYVVVMPKKRQALVEFEDVLGACNAVNYAADNQIYIAGHPAFVNYSTSQKISRPGDSDDSRSVNSVLLFTILNPIYSITTDVLYTICNPCGPVQRIVIFRKNGVQAMVEFDSVQSAQRAKASLNGADIYSGCCTLKIEYAKPTRLNVFKNDQDTWDYTNPNLSGQGDPGSNPNKRQRQPPLLGDHPAEYGGPHGGYHSHYHDEGYGPPPPHYEGRRMGPPVGGHRRGPSRYGPQYGHPPPPPPPPEYGPHADSPVLMVYGLDQSKMNCDRVFNVFCLYGNVEKVKFMKSKPGAAMVEMADGYAVDRAITHLNNNFMFGQKLNVCVSKQPAIMPGQSYGLEDGSCSYKDFSESRNNRFSTPEQAAKNRIQHPSNVLHFFNAPLEVTEENFFEICDELGVKRPSSVKVFSGKSERSSSGLLEWESKSDALETLGFLNHYQMKNPNGPYPYTLKLCFSTAQHAS
